No constants are given. Whether binding was seen depends on the method and setting. Binding seen in cells or lysates may run through a third protein. Some results given as binding are weak or reduced against the parent protein; the word gives no strength.

The chains behind the UniProt entries cited, without tags or fusion partners.
UniProt Q14789: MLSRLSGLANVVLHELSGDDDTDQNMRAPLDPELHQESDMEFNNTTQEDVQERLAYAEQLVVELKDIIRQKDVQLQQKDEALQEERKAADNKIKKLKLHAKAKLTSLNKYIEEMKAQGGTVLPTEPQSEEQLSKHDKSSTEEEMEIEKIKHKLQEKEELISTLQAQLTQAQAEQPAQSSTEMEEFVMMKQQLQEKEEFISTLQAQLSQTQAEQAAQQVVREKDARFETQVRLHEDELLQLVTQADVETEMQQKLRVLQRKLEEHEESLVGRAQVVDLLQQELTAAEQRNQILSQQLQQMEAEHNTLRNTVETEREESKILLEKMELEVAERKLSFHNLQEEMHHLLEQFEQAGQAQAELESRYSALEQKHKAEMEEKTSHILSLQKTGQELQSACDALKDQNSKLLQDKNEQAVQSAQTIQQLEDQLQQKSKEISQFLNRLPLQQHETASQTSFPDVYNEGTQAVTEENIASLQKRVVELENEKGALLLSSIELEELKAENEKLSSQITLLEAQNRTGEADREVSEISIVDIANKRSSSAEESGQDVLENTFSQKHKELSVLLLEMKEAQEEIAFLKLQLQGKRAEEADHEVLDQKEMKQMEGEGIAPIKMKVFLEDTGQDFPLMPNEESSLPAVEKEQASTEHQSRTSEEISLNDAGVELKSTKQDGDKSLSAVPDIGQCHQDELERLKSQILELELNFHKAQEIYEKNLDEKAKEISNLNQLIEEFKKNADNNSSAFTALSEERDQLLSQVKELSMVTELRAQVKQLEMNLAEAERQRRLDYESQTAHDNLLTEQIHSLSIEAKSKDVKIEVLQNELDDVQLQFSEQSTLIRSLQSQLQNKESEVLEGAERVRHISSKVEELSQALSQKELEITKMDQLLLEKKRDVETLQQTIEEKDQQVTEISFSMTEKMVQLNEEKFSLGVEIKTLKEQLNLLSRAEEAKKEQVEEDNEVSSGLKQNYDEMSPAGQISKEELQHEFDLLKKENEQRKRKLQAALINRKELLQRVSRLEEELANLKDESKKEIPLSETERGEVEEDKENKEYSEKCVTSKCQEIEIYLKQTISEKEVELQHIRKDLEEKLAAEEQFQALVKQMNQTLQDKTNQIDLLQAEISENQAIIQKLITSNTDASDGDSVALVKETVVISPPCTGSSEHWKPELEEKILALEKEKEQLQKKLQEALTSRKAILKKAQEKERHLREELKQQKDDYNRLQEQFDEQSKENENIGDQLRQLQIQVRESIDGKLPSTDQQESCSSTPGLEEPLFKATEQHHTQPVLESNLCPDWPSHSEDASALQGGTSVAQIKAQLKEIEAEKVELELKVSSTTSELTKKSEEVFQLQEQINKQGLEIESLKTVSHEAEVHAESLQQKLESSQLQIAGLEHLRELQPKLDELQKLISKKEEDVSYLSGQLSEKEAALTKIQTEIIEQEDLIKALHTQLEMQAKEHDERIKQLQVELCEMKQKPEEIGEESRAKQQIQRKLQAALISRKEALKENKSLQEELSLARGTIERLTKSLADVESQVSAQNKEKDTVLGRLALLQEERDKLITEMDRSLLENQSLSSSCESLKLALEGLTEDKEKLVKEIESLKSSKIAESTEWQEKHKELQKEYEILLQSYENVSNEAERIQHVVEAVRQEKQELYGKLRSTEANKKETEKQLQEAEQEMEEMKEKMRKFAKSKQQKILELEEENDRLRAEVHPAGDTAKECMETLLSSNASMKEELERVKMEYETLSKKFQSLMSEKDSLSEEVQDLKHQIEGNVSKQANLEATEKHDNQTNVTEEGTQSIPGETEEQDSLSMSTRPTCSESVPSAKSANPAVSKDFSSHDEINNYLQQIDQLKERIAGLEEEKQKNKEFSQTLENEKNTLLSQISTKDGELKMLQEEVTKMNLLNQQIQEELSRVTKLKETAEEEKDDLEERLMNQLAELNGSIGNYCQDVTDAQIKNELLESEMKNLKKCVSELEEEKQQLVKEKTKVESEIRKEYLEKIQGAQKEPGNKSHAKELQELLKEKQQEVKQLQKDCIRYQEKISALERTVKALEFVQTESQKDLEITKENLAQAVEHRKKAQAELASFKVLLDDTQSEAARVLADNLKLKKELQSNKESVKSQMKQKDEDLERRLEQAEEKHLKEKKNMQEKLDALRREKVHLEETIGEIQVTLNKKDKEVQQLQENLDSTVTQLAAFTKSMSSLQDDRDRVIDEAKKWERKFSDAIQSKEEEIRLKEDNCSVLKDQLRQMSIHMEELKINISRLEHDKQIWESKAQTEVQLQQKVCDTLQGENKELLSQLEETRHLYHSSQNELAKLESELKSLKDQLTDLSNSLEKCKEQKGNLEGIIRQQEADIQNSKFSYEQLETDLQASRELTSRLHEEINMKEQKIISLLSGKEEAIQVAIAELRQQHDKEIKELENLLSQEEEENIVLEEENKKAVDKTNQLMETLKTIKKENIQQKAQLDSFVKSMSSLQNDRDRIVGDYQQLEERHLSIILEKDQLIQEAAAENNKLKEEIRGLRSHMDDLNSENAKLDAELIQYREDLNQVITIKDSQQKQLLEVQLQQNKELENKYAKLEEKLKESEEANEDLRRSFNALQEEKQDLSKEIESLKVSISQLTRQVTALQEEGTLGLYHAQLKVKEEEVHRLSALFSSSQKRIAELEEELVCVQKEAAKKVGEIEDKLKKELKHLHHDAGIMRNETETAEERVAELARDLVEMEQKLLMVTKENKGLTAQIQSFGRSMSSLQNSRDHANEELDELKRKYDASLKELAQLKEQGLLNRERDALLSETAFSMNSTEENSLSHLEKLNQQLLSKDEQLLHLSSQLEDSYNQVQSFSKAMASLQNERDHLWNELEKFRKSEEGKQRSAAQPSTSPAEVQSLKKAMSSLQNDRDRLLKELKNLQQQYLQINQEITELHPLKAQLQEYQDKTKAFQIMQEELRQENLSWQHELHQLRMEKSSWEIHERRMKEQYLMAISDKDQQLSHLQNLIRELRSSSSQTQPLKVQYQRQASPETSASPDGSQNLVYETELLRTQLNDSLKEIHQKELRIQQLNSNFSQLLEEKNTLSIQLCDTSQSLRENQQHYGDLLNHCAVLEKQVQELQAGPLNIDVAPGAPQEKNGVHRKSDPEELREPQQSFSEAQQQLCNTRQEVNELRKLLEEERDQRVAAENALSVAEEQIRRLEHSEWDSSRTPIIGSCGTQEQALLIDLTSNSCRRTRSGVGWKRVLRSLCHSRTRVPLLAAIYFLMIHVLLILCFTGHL

Drawing on article doi:10.1101/2022.10.17.512236, this text covers binding for one substance.

This experiment deals with T1, RAD51C (human (endogenous in HeLa)) (UniProt O43502).
T1 sequence: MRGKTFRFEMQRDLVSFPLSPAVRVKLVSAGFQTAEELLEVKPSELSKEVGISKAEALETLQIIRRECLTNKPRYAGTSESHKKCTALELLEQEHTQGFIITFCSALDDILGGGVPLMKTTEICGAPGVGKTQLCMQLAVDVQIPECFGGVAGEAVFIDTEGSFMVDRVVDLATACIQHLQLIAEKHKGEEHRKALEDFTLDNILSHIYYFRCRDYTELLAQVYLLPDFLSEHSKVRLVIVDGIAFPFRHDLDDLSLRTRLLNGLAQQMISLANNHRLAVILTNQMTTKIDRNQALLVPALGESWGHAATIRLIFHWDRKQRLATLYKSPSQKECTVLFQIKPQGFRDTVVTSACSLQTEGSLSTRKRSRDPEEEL
The experiment can be described thus: co-IP.

In the case of “Giantin (GOLGB1) (from UniProt Q14789 1-3259)”, the binding result is “binds”.
